Results published in doi:10.1101/2024.03.28.587165.
Results are given in words; binding and its absence hold for the method and conditions named. Binding can be weak; no strength is given.

By UniProt entry, the sequences of proteins in these tests, tags left out. Where a name states a change or a piece, a line headed by the entry shows the natural chain unless it says otherwise.
UniProt Q9SAF2: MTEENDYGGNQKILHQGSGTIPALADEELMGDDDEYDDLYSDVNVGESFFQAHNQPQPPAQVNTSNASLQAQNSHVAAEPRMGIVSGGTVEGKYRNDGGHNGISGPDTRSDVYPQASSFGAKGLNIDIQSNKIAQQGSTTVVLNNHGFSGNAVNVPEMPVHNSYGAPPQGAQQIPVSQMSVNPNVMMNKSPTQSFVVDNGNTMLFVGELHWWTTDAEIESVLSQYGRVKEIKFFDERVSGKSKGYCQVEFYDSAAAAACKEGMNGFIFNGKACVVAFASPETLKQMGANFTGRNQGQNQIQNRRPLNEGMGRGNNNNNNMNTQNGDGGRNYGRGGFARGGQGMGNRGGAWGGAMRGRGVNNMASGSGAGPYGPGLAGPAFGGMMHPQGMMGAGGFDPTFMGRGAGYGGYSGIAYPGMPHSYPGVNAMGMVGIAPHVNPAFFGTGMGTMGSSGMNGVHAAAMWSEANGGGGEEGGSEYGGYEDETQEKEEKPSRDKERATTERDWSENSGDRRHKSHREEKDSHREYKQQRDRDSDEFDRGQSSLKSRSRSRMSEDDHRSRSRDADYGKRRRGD
UniProt Q8GXS3: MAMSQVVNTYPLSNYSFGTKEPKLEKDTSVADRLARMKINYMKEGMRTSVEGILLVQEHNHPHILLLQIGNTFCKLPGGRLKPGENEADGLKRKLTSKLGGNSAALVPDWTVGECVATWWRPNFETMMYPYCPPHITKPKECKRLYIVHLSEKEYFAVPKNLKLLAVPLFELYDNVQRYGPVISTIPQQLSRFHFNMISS

Molecular target: GST-tagged AtCFI59 (Arabidopsis thaliana) (UniProt Q9SAF2)
Experiment: pull-down

## HIS-tagged AtCFI25a (from UniProt Q8GXS3)
  binding: binds
